Source: patent US9452154B2, “Methods for treating HCV” (Gilead Sciences, Inc., priority 2010, dated 2016)
At least one structure is not confirmed: it was looked up by name or label, or the drawing left a doubt.

Tested on: HCV 1b replicon system
Assay: Biological Example 5: antiviral combination studies with Compound 6 (MacSynergy II)
Assay type: cell-based
Details: in combination with Compound 6

CC(C)C(=O)OCC1O[C@@H](n2ccc(N)nc2=O)[C@](C)(F)[C@@H]1OC(=O)C(C)C (stereo partly shown) [Compound 7]
Interaction: Moderate Synergy
